The values below come from the supplement of paper PMC10849652.

Protein sequences, listed by entry. Tags and fused reporters are not part of them. Lines headed by an entry give the natural chain unless they say otherwise; changes in a name come on top.
UniProt O60869: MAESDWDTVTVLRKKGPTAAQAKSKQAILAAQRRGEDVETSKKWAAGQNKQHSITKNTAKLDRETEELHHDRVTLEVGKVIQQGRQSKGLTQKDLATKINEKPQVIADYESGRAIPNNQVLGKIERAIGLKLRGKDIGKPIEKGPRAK
UniProt Q6V1X1: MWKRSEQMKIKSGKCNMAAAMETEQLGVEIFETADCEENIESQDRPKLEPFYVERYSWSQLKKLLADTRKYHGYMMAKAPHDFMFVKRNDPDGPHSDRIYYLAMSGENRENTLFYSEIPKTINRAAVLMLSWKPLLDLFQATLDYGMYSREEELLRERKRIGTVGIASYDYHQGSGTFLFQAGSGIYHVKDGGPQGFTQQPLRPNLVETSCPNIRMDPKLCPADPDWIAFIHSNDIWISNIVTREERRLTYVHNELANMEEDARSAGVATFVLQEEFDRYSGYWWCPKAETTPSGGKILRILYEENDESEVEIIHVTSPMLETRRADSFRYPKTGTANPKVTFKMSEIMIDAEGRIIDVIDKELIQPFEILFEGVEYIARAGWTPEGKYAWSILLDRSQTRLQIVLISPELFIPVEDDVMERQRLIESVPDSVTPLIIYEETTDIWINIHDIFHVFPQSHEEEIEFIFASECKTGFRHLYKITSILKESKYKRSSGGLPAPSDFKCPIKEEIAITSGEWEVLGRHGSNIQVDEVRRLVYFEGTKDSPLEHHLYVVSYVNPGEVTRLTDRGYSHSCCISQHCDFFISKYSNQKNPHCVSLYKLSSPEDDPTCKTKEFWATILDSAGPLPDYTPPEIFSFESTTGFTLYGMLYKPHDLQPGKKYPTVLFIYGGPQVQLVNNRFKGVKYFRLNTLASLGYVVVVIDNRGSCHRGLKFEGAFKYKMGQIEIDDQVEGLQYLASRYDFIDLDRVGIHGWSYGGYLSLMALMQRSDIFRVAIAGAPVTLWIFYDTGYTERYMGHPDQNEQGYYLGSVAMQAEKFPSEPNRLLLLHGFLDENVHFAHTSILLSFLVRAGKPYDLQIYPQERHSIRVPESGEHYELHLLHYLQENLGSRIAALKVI
UniProt O95620: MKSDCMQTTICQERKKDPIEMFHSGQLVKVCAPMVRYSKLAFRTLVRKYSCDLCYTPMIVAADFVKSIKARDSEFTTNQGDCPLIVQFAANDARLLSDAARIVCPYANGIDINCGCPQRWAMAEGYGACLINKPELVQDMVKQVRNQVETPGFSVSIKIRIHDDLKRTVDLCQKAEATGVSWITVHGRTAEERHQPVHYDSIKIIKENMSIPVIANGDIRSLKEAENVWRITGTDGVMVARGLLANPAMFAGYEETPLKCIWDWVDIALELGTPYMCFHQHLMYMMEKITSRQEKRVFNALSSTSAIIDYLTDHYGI
UniProt Q7RTS9: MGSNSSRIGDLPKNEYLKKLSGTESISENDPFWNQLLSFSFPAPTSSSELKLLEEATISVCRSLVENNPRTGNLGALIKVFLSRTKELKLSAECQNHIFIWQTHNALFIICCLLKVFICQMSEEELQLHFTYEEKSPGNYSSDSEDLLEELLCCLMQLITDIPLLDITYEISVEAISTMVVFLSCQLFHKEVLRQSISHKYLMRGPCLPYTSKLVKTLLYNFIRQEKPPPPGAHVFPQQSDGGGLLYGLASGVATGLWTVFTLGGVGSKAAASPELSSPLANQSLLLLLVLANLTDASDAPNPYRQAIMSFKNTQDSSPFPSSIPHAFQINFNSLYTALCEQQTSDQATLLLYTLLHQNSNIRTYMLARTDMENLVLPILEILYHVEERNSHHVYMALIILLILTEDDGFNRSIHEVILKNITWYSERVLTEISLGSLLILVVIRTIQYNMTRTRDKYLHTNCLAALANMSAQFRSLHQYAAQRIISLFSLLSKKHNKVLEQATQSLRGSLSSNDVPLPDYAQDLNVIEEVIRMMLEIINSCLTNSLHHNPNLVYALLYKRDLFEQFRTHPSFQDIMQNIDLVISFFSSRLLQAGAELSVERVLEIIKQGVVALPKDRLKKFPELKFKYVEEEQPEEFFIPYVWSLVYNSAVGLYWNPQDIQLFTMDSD
EEF1AKMT2, A0A494BZY7, UniProt A0A494BZY7, whole entry, looked up: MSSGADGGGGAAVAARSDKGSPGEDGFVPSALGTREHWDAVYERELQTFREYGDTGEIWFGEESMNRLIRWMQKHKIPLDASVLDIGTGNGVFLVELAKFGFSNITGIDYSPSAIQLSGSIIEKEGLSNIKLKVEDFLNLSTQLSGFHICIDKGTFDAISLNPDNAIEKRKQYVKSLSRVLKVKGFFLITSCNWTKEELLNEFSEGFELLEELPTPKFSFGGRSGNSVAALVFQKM
UniProt Q92611: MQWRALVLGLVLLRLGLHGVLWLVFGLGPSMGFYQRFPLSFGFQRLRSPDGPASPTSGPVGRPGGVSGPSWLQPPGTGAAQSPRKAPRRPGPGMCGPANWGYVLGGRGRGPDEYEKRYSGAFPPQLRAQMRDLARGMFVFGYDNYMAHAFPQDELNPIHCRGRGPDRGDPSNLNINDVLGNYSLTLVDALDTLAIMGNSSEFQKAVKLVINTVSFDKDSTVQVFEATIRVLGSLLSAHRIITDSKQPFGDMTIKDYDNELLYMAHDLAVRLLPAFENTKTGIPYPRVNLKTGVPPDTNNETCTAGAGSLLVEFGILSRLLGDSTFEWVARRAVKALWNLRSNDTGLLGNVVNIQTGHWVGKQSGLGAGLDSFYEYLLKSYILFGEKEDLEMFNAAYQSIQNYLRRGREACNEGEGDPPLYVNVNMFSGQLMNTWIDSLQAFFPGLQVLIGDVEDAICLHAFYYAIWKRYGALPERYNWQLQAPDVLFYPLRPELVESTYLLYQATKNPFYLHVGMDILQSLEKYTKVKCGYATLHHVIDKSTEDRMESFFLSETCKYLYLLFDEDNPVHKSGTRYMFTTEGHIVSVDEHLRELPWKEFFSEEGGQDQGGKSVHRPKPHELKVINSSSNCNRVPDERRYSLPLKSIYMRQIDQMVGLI
UniProt Q8NDI1: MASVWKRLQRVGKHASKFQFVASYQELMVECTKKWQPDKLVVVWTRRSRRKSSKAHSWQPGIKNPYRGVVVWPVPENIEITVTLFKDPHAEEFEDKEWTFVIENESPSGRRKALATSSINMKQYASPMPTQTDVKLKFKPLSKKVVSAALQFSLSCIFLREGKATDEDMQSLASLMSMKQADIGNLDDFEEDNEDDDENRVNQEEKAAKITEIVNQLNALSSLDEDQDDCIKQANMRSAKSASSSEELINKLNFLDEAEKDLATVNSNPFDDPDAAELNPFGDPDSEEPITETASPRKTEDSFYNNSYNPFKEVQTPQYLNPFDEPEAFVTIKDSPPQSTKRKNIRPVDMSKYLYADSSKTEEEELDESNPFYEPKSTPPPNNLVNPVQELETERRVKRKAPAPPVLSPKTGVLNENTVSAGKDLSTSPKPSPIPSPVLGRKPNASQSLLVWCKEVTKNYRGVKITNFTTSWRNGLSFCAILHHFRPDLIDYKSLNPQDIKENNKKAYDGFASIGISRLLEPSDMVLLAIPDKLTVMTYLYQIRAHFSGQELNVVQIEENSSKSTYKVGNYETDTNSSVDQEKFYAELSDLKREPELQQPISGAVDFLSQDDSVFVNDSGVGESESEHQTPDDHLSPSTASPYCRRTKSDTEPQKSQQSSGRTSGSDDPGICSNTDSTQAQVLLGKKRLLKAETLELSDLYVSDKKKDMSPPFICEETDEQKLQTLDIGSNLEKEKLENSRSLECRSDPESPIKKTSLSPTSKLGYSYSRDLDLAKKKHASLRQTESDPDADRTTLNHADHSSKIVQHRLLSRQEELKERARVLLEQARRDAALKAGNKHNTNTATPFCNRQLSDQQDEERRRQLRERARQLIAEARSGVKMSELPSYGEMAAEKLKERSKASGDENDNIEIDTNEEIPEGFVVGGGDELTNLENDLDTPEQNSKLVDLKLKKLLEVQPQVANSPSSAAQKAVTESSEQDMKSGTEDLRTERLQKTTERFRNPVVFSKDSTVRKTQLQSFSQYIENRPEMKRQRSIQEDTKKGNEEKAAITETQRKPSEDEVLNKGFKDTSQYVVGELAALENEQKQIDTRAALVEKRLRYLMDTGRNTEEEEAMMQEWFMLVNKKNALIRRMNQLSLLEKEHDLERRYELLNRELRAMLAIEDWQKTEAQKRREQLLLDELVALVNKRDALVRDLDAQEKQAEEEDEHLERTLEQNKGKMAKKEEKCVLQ
UniProt Q8WWZ3: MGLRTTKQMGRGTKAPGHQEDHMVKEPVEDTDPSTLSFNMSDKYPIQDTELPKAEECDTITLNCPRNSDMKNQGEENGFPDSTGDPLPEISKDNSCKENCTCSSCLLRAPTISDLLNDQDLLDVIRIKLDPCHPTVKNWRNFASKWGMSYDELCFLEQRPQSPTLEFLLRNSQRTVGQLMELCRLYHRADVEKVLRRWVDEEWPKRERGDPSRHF
UniProt P23919: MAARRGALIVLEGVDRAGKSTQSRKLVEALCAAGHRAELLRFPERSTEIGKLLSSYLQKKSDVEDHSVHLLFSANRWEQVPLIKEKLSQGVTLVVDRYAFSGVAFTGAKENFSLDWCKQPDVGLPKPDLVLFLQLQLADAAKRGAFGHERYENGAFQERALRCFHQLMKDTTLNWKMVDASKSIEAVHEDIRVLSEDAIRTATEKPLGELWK
UniProt Q96FJ2, whole entry, looked up: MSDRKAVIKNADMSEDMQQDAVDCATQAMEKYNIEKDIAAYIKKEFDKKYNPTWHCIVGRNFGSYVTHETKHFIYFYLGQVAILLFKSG
UniProt Q9NP97, whole entry, looked up: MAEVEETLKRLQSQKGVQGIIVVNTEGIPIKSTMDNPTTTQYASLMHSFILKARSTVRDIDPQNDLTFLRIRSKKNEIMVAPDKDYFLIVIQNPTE
UniProt P24534: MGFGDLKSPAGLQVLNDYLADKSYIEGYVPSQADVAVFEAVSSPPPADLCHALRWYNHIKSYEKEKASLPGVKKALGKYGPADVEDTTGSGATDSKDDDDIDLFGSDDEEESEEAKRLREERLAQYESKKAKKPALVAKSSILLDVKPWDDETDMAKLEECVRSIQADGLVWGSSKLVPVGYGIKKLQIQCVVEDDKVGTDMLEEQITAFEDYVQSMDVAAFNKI
UniProt P33316: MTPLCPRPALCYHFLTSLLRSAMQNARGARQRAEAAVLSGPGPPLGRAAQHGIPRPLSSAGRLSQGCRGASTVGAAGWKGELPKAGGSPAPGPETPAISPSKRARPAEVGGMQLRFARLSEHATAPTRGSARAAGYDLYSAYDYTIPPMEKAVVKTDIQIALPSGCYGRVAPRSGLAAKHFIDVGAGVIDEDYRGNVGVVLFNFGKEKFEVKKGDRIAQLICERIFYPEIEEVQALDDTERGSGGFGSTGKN
UniProt Q9H8V3: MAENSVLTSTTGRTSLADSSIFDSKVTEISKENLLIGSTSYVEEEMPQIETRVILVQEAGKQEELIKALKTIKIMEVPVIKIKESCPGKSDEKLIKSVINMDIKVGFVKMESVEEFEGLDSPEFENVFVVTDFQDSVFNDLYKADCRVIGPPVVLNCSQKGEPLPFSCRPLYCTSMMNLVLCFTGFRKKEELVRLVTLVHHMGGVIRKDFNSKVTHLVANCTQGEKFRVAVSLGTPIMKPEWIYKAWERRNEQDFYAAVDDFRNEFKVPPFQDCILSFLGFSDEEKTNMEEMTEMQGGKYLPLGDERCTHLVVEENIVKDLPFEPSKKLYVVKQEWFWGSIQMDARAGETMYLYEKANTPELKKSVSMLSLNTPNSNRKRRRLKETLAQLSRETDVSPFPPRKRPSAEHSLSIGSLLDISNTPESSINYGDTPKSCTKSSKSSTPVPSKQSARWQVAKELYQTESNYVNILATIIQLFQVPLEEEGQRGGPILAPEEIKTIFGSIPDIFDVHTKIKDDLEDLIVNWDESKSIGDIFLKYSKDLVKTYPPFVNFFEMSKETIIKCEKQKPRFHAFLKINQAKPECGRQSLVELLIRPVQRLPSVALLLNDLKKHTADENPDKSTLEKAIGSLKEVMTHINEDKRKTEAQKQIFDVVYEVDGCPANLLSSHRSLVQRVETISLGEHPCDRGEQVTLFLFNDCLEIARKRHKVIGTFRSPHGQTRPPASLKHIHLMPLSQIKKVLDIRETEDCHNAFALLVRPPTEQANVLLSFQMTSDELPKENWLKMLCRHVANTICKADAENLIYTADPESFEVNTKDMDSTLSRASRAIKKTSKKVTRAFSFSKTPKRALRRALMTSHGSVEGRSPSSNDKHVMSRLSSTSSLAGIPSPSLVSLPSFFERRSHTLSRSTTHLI
UniProt P51452: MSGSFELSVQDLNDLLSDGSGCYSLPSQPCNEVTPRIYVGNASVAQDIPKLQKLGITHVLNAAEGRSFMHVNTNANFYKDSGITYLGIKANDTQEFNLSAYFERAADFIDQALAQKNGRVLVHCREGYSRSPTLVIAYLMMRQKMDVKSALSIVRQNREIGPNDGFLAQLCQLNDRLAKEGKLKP
UniProt Q8N9N8: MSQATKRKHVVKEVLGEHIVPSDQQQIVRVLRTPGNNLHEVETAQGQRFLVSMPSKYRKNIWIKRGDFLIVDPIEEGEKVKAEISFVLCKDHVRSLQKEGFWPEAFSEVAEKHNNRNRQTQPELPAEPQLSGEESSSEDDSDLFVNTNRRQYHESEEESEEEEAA

The list shows a part of the results.

Compound in one assay: CC(=O)c1cnc2ccc(-c3cc(Cl)c(O)c(Cl)c3)nc2c1N[C@H]1CC[C@H](CN(C)C)CC1
As to the kind of experiment: log2 fold change, soluble protein after heating vs DMSO (PISA); higher = thermal stabilisation; K562 lysate, 10 uM; active = over 0.2 and 3.5 SD of the protein, either way, in both replicates (recomputed). In short, it runs like this:
(§1)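 Following dounce homogenisation of K562 pellets in PBS pH 7.4 with 1 mM MgCl2, crude extract at 1 mg/mL protein was incubated for 30 min with 10 μM compound. Aliquots were then heated for 3 min over 48°C-58°C and pooled, NP-40 was added to 0.5% at 4°C, and soluble protein was recovered as the supernatant at 21,000xg for 90 min. Channel-sum-equalised TMTpro 16plex LC-MS/MS quantified this protein. Each value, from duplicates, is a log-two fold change in thermal stability relative to solvent controls.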
As to EIF1B (UniProt O60739), the log2 fold change is inactive: 0.02.

For the target EDF1 (UniProt O60869), the log2 fold change was inactive: -0.005.

As to DRAP1 isoform 2 (UniProt Q14919), the log2 fold change is inactive: -0.002.

Turning to E2F4 (UniProt Q16254), the log2 fold change is inactive: -0.035.

For the target EFHD2 (UniProt Q96C19), the log2 fold change is inactive: 0.006.

For DPP8 (UniProt Q6V1X1), the log2 fold change is inactive: 0.035.

On to DSN1 (UniProt Q9H410), for which the log2 fold change is inactive: -0.023.

Take DUS4L (UniProt O95620): the log2 fold change is inactive: 0.013.

Regarding EEF1E1 (UniProt O43324), the log2 fold change is inactive: 0.012.

Take DYM (UniProt Q7RTS9): the log2 fold change is inactive: -0.11.

Consider EFTUD2 (UniProt Q15029), for which the log2 fold change is inactive: -0.006.

For EIF2A (UniProt Q9BY44), the log2 fold change is inactive: -0.017.

For EEF1AKMT2, A0A494BZY7, the log2 fold change is inactive: -0.038.

As to DPY19L1, A0A1B0GW05, the log2 fold change is inactive: -0.005.

In the case of EDEM1 (UniProt Q92611), the log2 fold change is inactive: 0.019.

As to DPYSL2 (UniProt Q16555), the log2 fold change is inactive: 0.011.

For the target DUS3L (UniProt Q96G46), the log2 fold change is inactive: -0.003.

On to DSCC1 (UniProt Q9BVC3), for which the log2 fold change was inactive: 0.141.

For the target EHBP1 isoform 2 (UniProt Q8NDI1), the log2 fold change was inactive: -0.021.

As for EDARADD (UniProt Q8WWZ3), the log2 fold change is inactive: -0.019.

Regarding EFHD1 (UniProt Q9BUP0), the log2 fold change was inactive: -0.015.

For the target DTYMK (UniProt P23919), the log2 fold change is inactive: -0.018.

Take DYNLL2 (UniProt Q96FJ2): the log2 fold change was inactive: 0.006.

Consider DPH7 (UniProt Q9BTV6), for which the log2 fold change was inactive: 0.03.

For ECH1 (UniProt Q13011), the log2 fold change was inactive: -0.02.

As for DUSP23 (UniProt Q9BVJ7), the log2 fold change was inactive: -0.065.

As to DYNLRB1 (UniProt Q9NP97), the log2 fold change was inactive: -0.026.

As to DPP9 isoform 2 (UniProt Q86TI2), the log2 fold change is inactive: 0.005.

DPP7 (UniProt Q9UHL4): the log2 fold change is inactive: 0.013.

In the case of EEF1D isoform 2 (UniProt P29692), the log2 fold change is inactive: -0.005.

Turning to EEF1B2 (UniProt P24534), the log2 fold change was inactive: -0.001.

DUT (UniProt P33316): the log2 fold change was inactive: 0.002.

As to EED, A0A5F9ZI63, the log2 fold change was inactive: -0.018.

On to DPH6 (UniProt Q7L8W6), for which the log2 fold change is inactive: 0.029.

Turning to ECT2 (UniProt Q9H8V3), the log2 fold change was inactive: -0.058.

DUSP3 (UniProt P51452): the log2 fold change is inactive: -0.027.

Consider DYNC1H1 (UniProt Q14204), for which the log2 fold change is inactive: -0.006.

For EIF1AD (UniProt Q8N9N8), the log2 fold change was inactive: 0.022.

Turning to ECI2 (UniProt O75521), the log2 fold change is inactive: -0.027.

For the target EBNA1BP2 (UniProt Q99848), the log2 fold change was inactive: -0.011.

Compound in a further assay: CC(C)(C)Cn1c(N)nc2ccc(-c3[nH]c(C(C)(C)C)nc3-c3ccc(F)cc3)nc21 [ralimetinib]
Described as above. A digest of the protocol: as §1
On to EIF1B (UniProt O60739), for which the log2 fold change is inactive: -0.001.

Regarding EDF1 (UniProt O60869), the log2 fold change is inactive: -0.06.

In the case of DRAP1 isoform 2 (UniProt Q14919), the log2 fold change is inactive: 0.025.

With E2F4 (UniProt Q16254), the log2 fold change was inactive: 0.01.

EFHD2 (UniProt Q96C19): the log2 fold change is inactive: 0.01.

In the case of DPP8 (UniProt Q6V1X1), the log2 fold change is inactive: -0.022.

As to DSN1 (UniProt Q9H410), the log2 fold change was inactive: 0.011.

On to DUS4L (UniProt O95620), for which the log2 fold change was inactive: -0.029.

For EEF1E1 (UniProt O43324), the log2 fold change was inactive: 0.031.

For the target DYM (UniProt Q7RTS9), the log2 fold change is inactive: -0.047.

For the target EFTUD2 (UniProt Q15029), the log2 fold change was inactive: 0.007.

On to EIF2A (UniProt Q9BY44), for which the log2 fold change is inactive: -0.017.

For EEF1AKMT2, A0A494BZY7, the log2 fold change was inactive: 0.009.

As to DPY19L1, A0A1B0GW05, the log2 fold change was inactive: -0.035.

As to EDEM1 (UniProt Q92611), the log2 fold change is inactive: 0.081.

On to DPYSL2 (UniProt Q16555), for which the log2 fold change is inactive: 0.036.

With DUS3L (UniProt Q96G46), the log2 fold change is inactive: 0.023.

Consider DSCC1 (UniProt Q9BVC3), for which the log2 fold change was inactive: 0.021.

Regarding EHBP1 isoform 2 (UniProt Q8NDI1), the log2 fold change is inactive: 0.01.

As for EDARADD (UniProt Q8WWZ3), the log2 fold change was inactive: -0.003.

For EFHD1 (UniProt Q9BUP0), the log2 fold change is inactive: -0.026.

Consider DTYMK (UniProt P23919), for which the log2 fold change was inactive: 0.049.

As for DYNLL2 (UniProt Q96FJ2), the log2 fold change is inactive: -0.016.

For the target DPH7 (UniProt Q9BTV6), the log2 fold change is inactive: 0.048.

On to ECH1 (UniProt Q13011), for which the log2 fold change was inactive: 0.064.

On to DUSP23 (UniProt Q9BVJ7), for which the log2 fold change was inactive: -0.04.

For the target DYNLRB1 (UniProt Q9NP97), the log2 fold change is inactive: -0.039.

As for DPP9 isoform 2 (UniProt Q86TI2), the log2 fold change was inactive: 0.009.

As to DPP7 (UniProt Q9UHL4), the log2 fold change was inactive: 0.014.

As for EEF1D isoform 2 (UniProt P29692), the log2 fold change is inactive: 0.007.

Consider EEF1B2 (UniProt P24534), for which the log2 fold change was inactive: -0.032.

As for DUT (UniProt P33316), the log2 fold change was inactive: 0.011.

EED, A0A5F9ZI63: the log2 fold change was inactive: 0.008.

On to DPH6 (UniProt Q7L8W6), for which the log2 fold change is inactive: -0.018.

In the case of ECT2 (UniProt Q9H8V3), the log2 fold change is inactive: -0.065.

DUSP3 (UniProt P51452): the log2 fold change is inactive: -0.022.

For the target DYNC1H1 (UniProt Q14204), the log2 fold change was inactive: 0.015.

Take EIF1AD (UniProt Q8N9N8): the log2 fold change was inactive: 0.023.

ECI2 (UniProt O75521): the log2 fold change was inactive: -0.033.

EBNA1BP2 (UniProt Q99848): the log2 fold change is inactive: -0.001.
